For 14 molecules, survivor count and T/C results are on record in PubChem BioAssay AID248 (DTP/NCI, 2004).

This experiment has as its system L1210 leukemia ip in BDF1 mice, survival T/C. Kind of experiment: NCI In Vivo Anticancer Drug Screen. Data for tumor model L1210 Leukemia (intraperitoneal) in B6D2F1 (BDF1) mice. To be noted: T/C endpoint: mean survival time, higher T/C = longer survival.
[1] abbreviates: dose: 400.0 mg/kg/injection, schedule: Q04DX003 (ip), vehicle: saline with Tween-80.
Where [2] appears, read: dose: 400.0 mg/kg/injection, schedule: Q01DX001 (ip), vehicle: carboxymethylcellulose (CMC).
The mark [3] stands for this setting: dose: 400.0 mg/kg/injection, schedule: Q01DX001 (ip), vehicle: saline.

The list shows only some results of the screen, not a fair sample: it gathers tests that were run many times, whatever their T/C, doses with no T/C, and many T/C values between a quarter and a half above the control. Other doses and runs of a compound stand elsewhere. T/C is the treated group as % of the vehicle group. Some entries give survivors of the animals treated and no T/C: the source holds a T/C of zero for them, seemingly a mark for toxic or unscored doses. Some doses without a T/C left all or most animals alive at the check, yet need not have been tolerated: the source hardly ever lists a survival T/C far under the control, and the zero likely stands for such cases as well. Counts of survivors are from the toxicity check (mostly the fifth day) where no day follows; animals may have died later. Schedule codes are those of the source, read here as Q, the interval in days (D) or hours (H), X, the number of doses. Some entries hold several experiments; their values stand side by side, smallest first. Some schedules carry Z or #; the key to these is not given. For survival time, the PubChem record calls one and a half times the control and up active, and a quarter to a half above the control has no call in these data; cut-offs in other NCI protocols can differ. Some T/C values are followed by the survivors on the day toxicity was checked, most often the fifth; without a count, all were alive then.

Consider `C1CSP(SCCSP2SCCS2)S1`, for which the survivor count runs as follows: (dose: 50.0 mg/kg/injection, schedule: Q01DX009 (ip), vehicle: carboxymethylcellulose (CMC)) 3 of 3; (dose: 400.0 mg/kg/injection, schedule: Q04DX002 (ip), vehicle: carboxymethylcellulose (CMC)) 0 of 3 and 3 of 6. The T/C (dose: 100.0 mg/kg/injection, schedule: Q04DX002 (ip), vehicle: carboxymethylcellulose (CMC)) is reported as 87, 93, 94, 103 % of control.
In the case of `NC(N)=NC(N)=Nc1ccc2c(Cl)c(Cl)ccc2c1`, the survivor count (dose: 100.0 mg/kg/injection, schedule: Q01DX009 (ip), vehicle: saline sonified) was 0 of 6; the survivor count (dose: 200.0 mg/kg/injection, schedule: Q01DX009 (ip), vehicle: saline sonified) is recorded as 0 of 6; the survivor count (dose: 200.0 mg/kg/injection, schedule: Q04DX003 (ip), vehicle: saline sonified) is listed as 3 of 6; the survivor count (dose: 400.0 mg/kg/injection, schedule: Q01DX009 (ip), vehicle: saline sonified) is reported as 0 of 6; the survivor count (dose: 400.0 mg/kg/injection, schedule: Q04DX003 (ip), vehicle: saline sonified) is recorded as 0 of 6.
Regarding `O=NN(CCCl)C(=O)Nc1ccc(C(=O)O)cc1`, the T/C reads like this: (dose: 0.5 mg/kg/injection, schedule: Q01DX Z (ip), vehicle: saline) 140 % of control; (dose: 0.75 mg/kg/injection, schedule: Q01DX Z (ip), vehicle: saline) 142 % of control; (dose: 1.0 mg/kg/injection, schedule: Q01DX Z (ip), vehicle: saline) 141 % of control; (dose: 1.25 mg/kg/injection, schedule: Q01DX001 (ip), vehicle: carboxymethylcellulose (CMC)) 125 % of control; (dose: 3.7 mg/kg/injection, schedule: Q01DX001 (ip), vehicle: carboxymethylcellulose (CMC)) 126 % of control; (dose: 3.75 mg/kg/injection, schedule: Q01DX001 (ip), vehicle: carboxymethylcellulose (CMC)) 127, 137, 142 % of control. For the same molecule, the T/C was 140 % of control (dose: 5.0 mg/kg/injection, schedule: Q01DX001 (ip), vehicle: carboxymethylcellulose (CMC)); 146, 147, 152, 162 % of control (dose: 7.5 mg/kg/injection, schedule: Q01DX001 (ip), vehicle: carboxymethylcellulose (CMC)); 145 % of control (dose: 7.5 mg/kg/injection, schedule: Q## X001 (ip), vehicle: carboxymethylcellulose (CMC)); 143 % of control (dose: 10.0 mg/kg/injection, schedule: Q01DX001 (ip), vehicle: carboxymethylcellulose (CMC)). The survivor count is 6 of 6 (dose: 18.0 mg/kg/injection, schedule: Q01DX Z (ip), vehicle: carboxymethylcellulose (CMC)); 5 of 6 (dose: 31.0 mg/kg/injection, schedule: Q01DX001 (ip), vehicle: carboxymethylcellulose (CMC)); 3 of 6 (dose: 37.0 mg/kg/injection, schedule: Q01DX Z (ip), vehicle: carboxymethylcellulose (CMC)); 1 of 6 (dose: 50.0 mg/kg/injection, schedule: Q01DX Z (ip), vehicle: carboxymethylcellulose (CMC)); 4 of 6 (dose: 62.0 mg/kg/injection, schedule: Q01DX001 (ip), vehicle: carboxymethylcellulose (CMC)); 0 of 6 (dose: 75.0 mg/kg/injection, schedule: Q01DX Z (ip), vehicle: carboxymethylcellulose (CMC)). Besides, the survivor count was 0 of 6 (dose: 100.0 mg/kg/injection, schedule: Q01DX Z (ip), vehicle: carboxymethylcellulose (CMC)); 1 of 6 (dose: 125.0 mg/kg/injection, schedule: Q01DX001 (ip), vehicle: carboxymethylcellulose (CMC)); 0 of 6 (dose: 150.0 mg/kg/injection, schedule: Q01DX Z (ip), vehicle: carboxymethylcellulose (CMC)); 0 of 6 (dose: 200.0 mg/kg/injection, schedule: Q01DX Z (ip), vehicle: carboxymethylcellulose (CMC)); 0 of 6 (dose: 250.0 mg/kg/injection, schedule: Q01DX001 (ip), vehicle: carboxymethylcellulose (CMC)); 0 of 6 (dose: 375.0 mg/kg/injection, schedule: Q01DX001 (ip), vehicle: carboxymethylcellulose (CMC)). Besides, the survivor count (dose: 500.0 mg/kg/injection, schedule: Q01DX001 (ip), vehicle: carboxymethylcellulose (CMC)) is reported as 0 of 6.
Turning to `CCNC(=S)NNc1ccccc1`, under setting [1], the survivor count is 3 of 6.
For the molecule `CC(=O)[O][Sn]([CH2]c1ccccc1)([CH2]c1ccccc1)[CH2]c1ccccc1`, the survivor count runs as follows: (dose: 6.0 mg/kg/injection, schedule: Q04DX004 (ip), vehicle: saline with Tween-80) 1 of 6; (dose: 12.0 mg/kg/injection, schedule: Q04DX004 (ip), vehicle: saline with Tween-80) 0 of 6; (dose: 25.0 mg/kg/injection, schedule: Q04DX003 (ip), vehicle: saline with Tween-80) 5 of 6; (dose: 25.0 mg/kg/injection, schedule: Q04DX004 (ip), vehicle: saline with Tween-80) 2 of 6; (dose: 50.0 mg/kg/injection, schedule: Q01DX009 (ip), vehicle: saline with Tween-80) 0 of 6 and 1 of 6; (dose: 50.0 mg/kg/injection, schedule: Q04DX003 (ip), vehicle: saline with Tween-80) 0 of 6. In addition, the survivor count runs as follows: (dose: 100.0 mg/kg/injection, schedule: Q01DX009 (ip), vehicle: saline with Tween-80) 0 of 6; (dose: 100.0 mg/kg/injection, schedule: Q04DX003 (ip), vehicle: saline with Tween-80) 0 of 6 and 4 of 6; (dose: 200.0 mg/kg/injection, schedule: Q01DX009 (ip), vehicle: saline with Tween-80) 0 of 6; (dose: 200.0 mg/kg/injection, schedule: Q04DX003 (ip), vehicle: saline with Tween-80) 0 of 6; under setting [1], 0 of 6.
`Nc1cccc(-c2csc(N)n2)c1`: the survivor count under setting [2] is 2 of 4.
As for `CCOP(=S)(S)OCC.[Ni]`, under setting [3], the survivor count is on record as 1 of 4.
With `CNC(=N)c1ccc(NC(=N)c2ccc(NC(=N)c3ccc(NC(=O)c4ccc(C(=N)NC)cc4)cc3)cc2)cc1`, the T/C reads like this: (dose: 20.0 mg/kg/injection, schedule: Q01DX015 (ip), vehicle: water) 126 % of control [5 of 6 alive]; (dose: 40.0 mg/kg/injection, schedule: Q01DX Z (ip), vehicle: water) 127 % of control. Further, the survivor count runs as follows: (dose: 75.0 mg/kg/injection, schedule: Q01DX015 (ip), vehicle: water) 0 of 6; (dose: 80.0 mg/kg/injection, schedule: Q01DX Z (ip), vehicle: water) 0 of 6; (dose: 160.0 mg/kg/injection, schedule: Q01DX Z (ip), vehicle: water) 0 of 6.
Consider `OC1(c2ccncc2)CCc2ccccc21` (configuration not stated), for which the survivor count (dose: 400.0 mg/kg/injection, schedule: Q04DX003 (ip), vehicle: Klucel (hydroxypropylcellulose) (HPC)) is on record as 0 of 6.
On to `O=C(O)C1Cc2c([nH]c3ccccc23)C(CCCCO)N1` (configuration not stated), for which the survivor count by setting is: (dose: 200.0 mg/kg/injection, schedule: Q01DX001 (ip), vehicle: carboxymethylcellulose (CMC)) 2 of 4; under setting [2], 2 of 4.
In the case of `c1ccc(CCNCc2ccc(CNCCc3ccccc3)cc2)cc1`, under setting [1], the survivor count is recorded as 3 of 6.
In the case of `CC(=O)Nc1ccc(Cc2ccc(N)cc2)cc1`, the survivor count under setting [3] was 2 of 6.
Consider `CCCCOC(=O)/C(=C\c1cccc(OC)c1)NC(=O)c1ccccc1`, for which, where the note is “dose: 100.0 mg/kg/injection, schedule: Q01DX009 (ip), vehicle: other”, the survivor count is 6 of 6.
For the molecule `CCOC(=O)NNC(=O)Nc1ccc(Cl)c([N+](=O)[O-])c1`, where the note is “dose: 400.0 mg/kg/injection, schedule: Q01DX009 (ip), vehicle: saline”, the survivor count is given as 3 of 6.
